Test results taken from PMC9243396.
These are yes or no findings as the source states them, for the method shown. Some binding calls cover weakened binding; strength is not graded here. Sequences can lack the tags named with a protein.

T1: Rad5-MIPΔ (7-EERKRFF-13 mutated to 7-EERKRAA-13) fused to the LexA DNA-binding domain (bait) (S. cerevisiae) (UniProt P32849)
T1 sequence: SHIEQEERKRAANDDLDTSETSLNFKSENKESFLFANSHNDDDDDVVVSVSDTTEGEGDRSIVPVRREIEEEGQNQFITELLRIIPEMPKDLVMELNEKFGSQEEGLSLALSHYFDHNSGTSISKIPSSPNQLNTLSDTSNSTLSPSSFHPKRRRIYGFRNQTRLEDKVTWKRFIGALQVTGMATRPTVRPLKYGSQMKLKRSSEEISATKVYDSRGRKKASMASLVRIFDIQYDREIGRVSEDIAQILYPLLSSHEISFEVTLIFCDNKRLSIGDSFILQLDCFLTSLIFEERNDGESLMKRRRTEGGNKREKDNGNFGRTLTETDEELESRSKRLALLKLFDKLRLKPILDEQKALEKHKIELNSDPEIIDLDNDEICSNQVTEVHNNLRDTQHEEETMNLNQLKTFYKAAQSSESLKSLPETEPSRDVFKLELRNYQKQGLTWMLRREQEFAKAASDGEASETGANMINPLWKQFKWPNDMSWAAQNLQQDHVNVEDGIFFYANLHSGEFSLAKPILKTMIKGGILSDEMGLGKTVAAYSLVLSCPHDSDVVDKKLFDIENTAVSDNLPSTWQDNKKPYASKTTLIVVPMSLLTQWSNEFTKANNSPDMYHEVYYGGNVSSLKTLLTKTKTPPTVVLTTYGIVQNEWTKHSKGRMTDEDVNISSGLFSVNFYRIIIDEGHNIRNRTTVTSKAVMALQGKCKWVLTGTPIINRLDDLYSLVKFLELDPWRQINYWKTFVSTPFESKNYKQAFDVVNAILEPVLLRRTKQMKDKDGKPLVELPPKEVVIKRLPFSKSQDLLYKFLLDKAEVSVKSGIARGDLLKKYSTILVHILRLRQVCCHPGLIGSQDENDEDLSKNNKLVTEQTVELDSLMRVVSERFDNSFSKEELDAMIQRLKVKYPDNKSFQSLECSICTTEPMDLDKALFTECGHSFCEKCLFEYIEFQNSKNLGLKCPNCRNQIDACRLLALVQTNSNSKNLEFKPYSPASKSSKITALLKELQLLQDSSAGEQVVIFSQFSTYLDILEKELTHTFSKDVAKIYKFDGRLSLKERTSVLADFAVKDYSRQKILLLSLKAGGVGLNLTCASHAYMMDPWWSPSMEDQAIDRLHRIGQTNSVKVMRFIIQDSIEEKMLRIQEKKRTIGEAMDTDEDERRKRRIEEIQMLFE

T2: Rad5-SHIPΔ (30-NKESFLF-36 mutated to 30-NKESALA-36) fused to the LexA DNA-binding domain (bait) (S. cerevisiae) (UniProt P32849)
T2 sequence: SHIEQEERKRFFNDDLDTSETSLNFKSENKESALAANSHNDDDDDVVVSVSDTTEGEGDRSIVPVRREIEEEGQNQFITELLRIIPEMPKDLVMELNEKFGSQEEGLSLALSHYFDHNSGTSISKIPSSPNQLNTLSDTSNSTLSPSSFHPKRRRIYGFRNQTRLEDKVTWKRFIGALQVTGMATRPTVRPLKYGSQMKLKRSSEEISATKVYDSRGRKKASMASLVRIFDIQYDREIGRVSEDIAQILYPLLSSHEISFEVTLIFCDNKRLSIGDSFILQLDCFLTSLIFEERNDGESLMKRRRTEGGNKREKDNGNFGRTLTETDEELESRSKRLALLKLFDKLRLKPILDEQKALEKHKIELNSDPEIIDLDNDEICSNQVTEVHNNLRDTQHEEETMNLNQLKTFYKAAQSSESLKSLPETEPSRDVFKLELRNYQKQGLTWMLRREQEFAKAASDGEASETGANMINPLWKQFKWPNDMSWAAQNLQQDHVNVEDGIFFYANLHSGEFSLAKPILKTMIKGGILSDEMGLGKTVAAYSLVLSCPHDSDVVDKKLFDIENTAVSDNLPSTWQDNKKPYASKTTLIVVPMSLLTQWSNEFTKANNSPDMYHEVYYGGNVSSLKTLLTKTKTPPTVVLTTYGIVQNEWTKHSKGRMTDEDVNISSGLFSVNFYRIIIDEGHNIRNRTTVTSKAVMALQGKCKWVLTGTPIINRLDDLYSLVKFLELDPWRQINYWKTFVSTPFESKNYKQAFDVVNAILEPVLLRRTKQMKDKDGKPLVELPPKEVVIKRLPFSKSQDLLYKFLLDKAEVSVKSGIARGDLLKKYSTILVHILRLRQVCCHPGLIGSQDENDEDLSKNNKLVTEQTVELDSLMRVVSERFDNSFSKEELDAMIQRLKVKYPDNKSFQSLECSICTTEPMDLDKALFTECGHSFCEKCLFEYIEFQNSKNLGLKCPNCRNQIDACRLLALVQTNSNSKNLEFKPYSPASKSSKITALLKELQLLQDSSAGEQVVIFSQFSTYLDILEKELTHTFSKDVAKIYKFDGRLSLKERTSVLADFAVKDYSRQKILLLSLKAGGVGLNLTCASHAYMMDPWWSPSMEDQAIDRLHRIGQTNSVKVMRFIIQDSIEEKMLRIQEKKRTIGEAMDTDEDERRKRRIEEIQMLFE

T3: S. cerevisiae Rad5 fused to the LexA DNA-binding domain (bait) (S. cerevisiae) (UniProt P32849)
T3 sequence: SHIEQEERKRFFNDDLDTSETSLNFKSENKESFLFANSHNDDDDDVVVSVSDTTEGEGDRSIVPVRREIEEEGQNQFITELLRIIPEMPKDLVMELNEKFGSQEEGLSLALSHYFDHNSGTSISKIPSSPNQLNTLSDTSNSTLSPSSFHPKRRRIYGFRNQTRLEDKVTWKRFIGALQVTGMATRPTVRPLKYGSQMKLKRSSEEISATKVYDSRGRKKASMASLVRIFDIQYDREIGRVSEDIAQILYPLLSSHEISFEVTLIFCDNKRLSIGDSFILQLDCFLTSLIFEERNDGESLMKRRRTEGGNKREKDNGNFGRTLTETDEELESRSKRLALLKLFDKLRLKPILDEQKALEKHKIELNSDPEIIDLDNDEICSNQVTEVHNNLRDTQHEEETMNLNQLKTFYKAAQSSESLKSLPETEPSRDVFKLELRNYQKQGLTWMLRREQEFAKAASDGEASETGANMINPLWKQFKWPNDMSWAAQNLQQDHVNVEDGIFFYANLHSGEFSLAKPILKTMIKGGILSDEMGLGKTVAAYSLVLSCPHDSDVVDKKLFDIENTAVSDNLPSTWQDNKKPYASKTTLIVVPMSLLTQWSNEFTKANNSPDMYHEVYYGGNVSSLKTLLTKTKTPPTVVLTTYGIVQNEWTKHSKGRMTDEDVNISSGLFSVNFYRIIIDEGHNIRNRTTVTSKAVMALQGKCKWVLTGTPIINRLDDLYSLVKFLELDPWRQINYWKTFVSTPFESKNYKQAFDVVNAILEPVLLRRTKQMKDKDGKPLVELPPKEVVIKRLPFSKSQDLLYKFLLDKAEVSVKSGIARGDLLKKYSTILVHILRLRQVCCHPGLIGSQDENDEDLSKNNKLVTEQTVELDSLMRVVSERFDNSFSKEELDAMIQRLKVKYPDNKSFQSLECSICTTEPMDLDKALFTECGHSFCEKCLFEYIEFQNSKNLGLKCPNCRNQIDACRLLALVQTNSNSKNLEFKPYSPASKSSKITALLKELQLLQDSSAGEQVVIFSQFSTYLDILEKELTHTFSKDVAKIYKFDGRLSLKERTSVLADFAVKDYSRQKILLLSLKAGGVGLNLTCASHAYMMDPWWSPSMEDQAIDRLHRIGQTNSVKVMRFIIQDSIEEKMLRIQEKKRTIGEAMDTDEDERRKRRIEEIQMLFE


Experiments:
Test in all cases: two-hybrid; LexA DNA-binding domain bait (pBTM116) and GAL4 activation domain prey (pACT2) co-transformed into S. cerevisiae L40; growth of 10-fold serial dilutions on CSM -Leu -Trp -His
[1] = biological target: T1, Rad5-MIPΔ (7-EERKRFF-13 mutated to 7-EERKRAA-13) fused to the LexA DNA-binding domain (bait) (S. cerevisiae)
[2] = biological target: T2, Rad5-SHIPΔ (30-NKESFLF-36 mutated to 30-NKESALA-36) fused to the LexA DNA-binding domain (bait) (S. cerevisiae)
[3] = biological target: T3, S. cerevisiae Rad5 fused to the LexA DNA-binding domain (bait) (S. cerevisiae)

| binding [1] | binding [2] | binding [3] | Binder |
| --- | --- | --- | --- |
| no binding | binds | binds | S. cerevisiae Mlh1 fused to the Gal4 transcriptional activation domain (prey) (protein, UniProt P38920 2-769) SLRIKALDASVVNKIAAGEIIISPVNALKEMMENSIDANATMIDILVKEGGIKVLQITDNGSGINKADLPILCERFTTSKLQKFEDLSQIQTYGFRGEALASISHVARVTVTTKVKEDRCAWRVSYAEGKMLESPKPVAGKDGTTILVEDLFFNIPSRLRALRSHNDEYSKILDVVGRYAIHSKDIGFSCKKFGDSNYSLSVKPSYTVQDRIRTVFNKSVASNLITFHISKVEDLNLESVDGKVCNLNFISKKSISPIFFINNRLVTCDLLRRALNSVYSNYLPKGNRPFIYLGIVIDPAAVDVNVHPTKREVRFLSQDEIIEKIANQLHAELSAIDTSRTFKASSISTNKPESLIPFNDTIESDRNRKSLRQAQVVENSYTTANSQLRKAKRQENKLVRIDASQAKITSFLSSSQQFNFEGSSTKRQLSEPKVTNVSHSQEAEKLTLNESEQPRDANTINDNDLKDQPKKKQKLGDYKVPSIADDEKNALPISKDGYIRVPKERVNVNLTSIKKLREKVDDSIHRELTDIFANLNYVGVVDEERRLAAIQHDLKLFLIDYGSVCYELFYQIGLTDFANFGKINLQSTNVSDDIVLYNLLSEFDELNDDASKEKIISKIWDMSSMLNEYYSIELVNDGLDNDLKSVKLKSLPLLLKGYIPSLVKLPFFIYRLGKEVDWEDEQECLDGILREIALLYIPDMVPKVDTSDASLSEDEKAQFINRKEHISSLLEHVLFPCIKRRFLAPRHILKDVVEIANLPDLYKVFERC |
| binds | binds | binds | S. cerevisiae Msh2 fused to the Gal4 transcriptional activation domain (prey) (protein, UniProt P25847 2-964) SSTRPELKFSDVSEERNFYKKYTGLPKKPLKTIRLVDKGDYYTVIGSDAIFVADSVYHTQSVLKNCQLDPVTAKNFHEPTKYVTVSLQVLATLLKLCLLDLGYKVEIYDKGWKLIKSASPGNIEQVNELMNMNIDSSIIIASLKVQWNSQDGNCIIGVAFIDTTAYKVGMLDIVDNEVYSNLESFLIQLGVKECLVQDLTSNSNSNAEMQKVINVIDRCGCVVTLLKNSEFSEKDVELDLTKLLGDDLALSLPQKYSKLSMGACNALIGYLQLLSEQDQVGKYELVEHKLKEFMKLDASAIKALNLFPQGPQNPFGSNNLAVSGFTSAGNSGKVTSLFQLLNHCKTNAGVRLLNEWLKQPLTNIDEINKRHDLVDYLIDQIELRQMLTSEYLPMIPDIRRLTKKLNKRGNLEDVLKIYQFSKRIPEIVQVFTSFLEDDSPTEPVNELVRSVWLAPLSHHVEPLSKFEEMVETTVDLDAYEENNEFMIKVEFNEELGKIRSKLDTLRDEIHSIHLDSAEDLGFDPDKKLKLENHHLHGWCMRLTRNDAKELRKHKKYIELSTVKAGIFFSTKQLKSIANETNILQKEYDKQQSALVREIINITLTYTPVFEKLSLVLAHLDVIASFAHTSSYAPIPYIRPKLHPMDSERRTHLISSRHPVLEMQDDISFISNDVTLESGKGDFLIITGPNMGGKSTYIRQVGVISLMAQIGCFVPCEEAEIAIVDAILCRVGAGDSQLKGVSTFMVEILETASILKNASKNSLIIVDELGRGTSTYDGFGLAWAIAEHIASKIGCFALFATHFHELTELSEKLPNVKNMHVVAHIEKNLKEQKHDDEDITLLYKVEPGISDQSFGIHVAEVVQFPEKIVKMAKRKANELDDLKTNNEDLKKAKLSLQEVNEGNIRLKALLKEWIRKVKEEGLHDPSKITEEASQHKIQELLRAIANEPEKENDNYLKYIKALLL |
